The results in this text go back to paper PMC10352258.

The chains behind the UniProt entries cited, without tags or fusion partners.
UniProt O00560: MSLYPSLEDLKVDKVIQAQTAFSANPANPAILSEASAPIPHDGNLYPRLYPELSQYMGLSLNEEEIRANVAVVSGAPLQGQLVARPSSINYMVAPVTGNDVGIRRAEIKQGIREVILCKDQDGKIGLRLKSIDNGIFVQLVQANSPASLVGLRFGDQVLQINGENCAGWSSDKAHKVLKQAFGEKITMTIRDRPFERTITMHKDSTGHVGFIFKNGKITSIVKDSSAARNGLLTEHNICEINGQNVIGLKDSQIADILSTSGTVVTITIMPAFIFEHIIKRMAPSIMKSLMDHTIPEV

The assay addresses exogenous HSP90 (HSP90 overexpression) (UniProt P07900). As to the kind of experiment: affinity purification with mass spectrometry; IP-MS in KYSE150 cells with HSP90 overexpression; Orbitrap Fusion Lumos.

Results are given in words; binding and its absence hold for the method and conditions named. Binding seen in cells or lysates may run through a third protein. Here binding means that the protein was enriched with, or labelled near, the bait; the list need not be complete.

On to “syndecan binding protein (SDCBP), endogenous (from UniProt O00560 1-298)”, for which the binding entry is reported as “binds”.
